# Assay results reported in patent US9308215B2, “Avermectins and milbemycins as anti-mycobacterial agents” (priority 2013, dated 2016).
# At least one structure is not confirmed: it was looked up by name or label, or the drawing left a doubt.
# Key:
# [1] = system: representative Gram-positive and Gram-negative bacteria; assay type: cell-based
# [2] = system: M. tuberculosis H37Rv and mc25857 (an MDR isolate); assay type: cell-based, Mycobacterium tuberculosis; conditions: in vitro against M. tuberculosis, survival kinetics
compound,measurement,setting,value
CO/N=C1\C[C@]2(C[C@@H]3C[C@@H](C/C=C(\C)C[C@@H](C)/C=C/C=C4\CO[C@@H]5[C@H](O)C(C)=C[C@@H](C(=O)O3)[C@]45O)O2)O[C@H](/C(C)=C/C(C)C)[C@H]1C [Moxidectin],Inhibitory effects,[1],not observed
same,bactericidal or bacteriostatic,[2],Bactericidal
